Results published in US20030157554A1.

By UniProt entry, the sequences of proteins in these tests, tags left out. Where a name states a change or a piece, a line headed by the entry shows the natural chain unless it says otherwise. Residues count along the entry.
UniProt P16083: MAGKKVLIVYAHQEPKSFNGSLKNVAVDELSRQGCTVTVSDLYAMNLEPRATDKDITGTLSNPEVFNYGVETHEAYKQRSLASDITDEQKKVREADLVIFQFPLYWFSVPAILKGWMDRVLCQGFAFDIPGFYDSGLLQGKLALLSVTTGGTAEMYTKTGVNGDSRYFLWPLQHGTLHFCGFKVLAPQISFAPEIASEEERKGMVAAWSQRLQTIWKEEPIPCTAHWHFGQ
UniProt Q93050, residues 1-300: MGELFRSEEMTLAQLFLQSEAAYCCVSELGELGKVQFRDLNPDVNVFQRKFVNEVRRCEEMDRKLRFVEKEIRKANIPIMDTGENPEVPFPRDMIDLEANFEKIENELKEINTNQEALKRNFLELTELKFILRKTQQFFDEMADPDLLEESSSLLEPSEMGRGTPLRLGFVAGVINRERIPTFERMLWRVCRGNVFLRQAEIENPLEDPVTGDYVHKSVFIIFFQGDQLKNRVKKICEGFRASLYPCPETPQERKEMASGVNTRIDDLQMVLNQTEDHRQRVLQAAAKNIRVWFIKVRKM

Tests used:
[1] = molecular target: NQO2 (Genbank ID: J02888) (human) (UniProt P16083); assay: Y2H 1x1 mating, binder AD fusion, target BD fusion
[2] = molecular target: T1, FHOS (Genbank ID: AF113615) (human) (UniProt Q9Y613); assay: Y2H 1x1 mating, binder AD fusion, target BD fusion
T1 sequence (looked up): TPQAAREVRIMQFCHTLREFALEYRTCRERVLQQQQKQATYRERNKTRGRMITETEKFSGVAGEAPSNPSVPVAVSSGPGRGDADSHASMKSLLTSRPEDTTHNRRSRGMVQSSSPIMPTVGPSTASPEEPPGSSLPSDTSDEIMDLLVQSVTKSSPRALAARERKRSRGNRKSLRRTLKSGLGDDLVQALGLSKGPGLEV

[3] = molecular target: T2, S100A9 (Genbank ID: M26311) (human) (UniProt P06702); assay: Y2H 1x1 mating, binder AD fusion, target BD fusion
T2 sequence (looked up): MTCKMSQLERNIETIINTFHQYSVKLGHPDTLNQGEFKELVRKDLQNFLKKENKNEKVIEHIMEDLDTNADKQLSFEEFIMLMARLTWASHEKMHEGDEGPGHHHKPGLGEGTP

S100B-1 (human) [4] = molecular target: T3, S100B-1 (human) (UniProt P04271); assay: Y2H 1x1 mating, binder AD fusion, target BD fusion
T3 sequence (looked up): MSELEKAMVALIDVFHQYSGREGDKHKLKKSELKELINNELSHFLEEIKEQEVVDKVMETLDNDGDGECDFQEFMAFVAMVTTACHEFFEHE

S100B-2 (human) [5] = molecular target: T4, S100B-2 (human) (UniProt P04271); assay: Y2H 1x1 mating, binder AD fusion, target BD fusion
T4 sequence (looked up): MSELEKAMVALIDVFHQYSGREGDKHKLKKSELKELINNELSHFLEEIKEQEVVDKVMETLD

S100B-1 (human) [6] = molecular target: T3, S100B-1 (human); assay: Y2H 1x1 mating, binder BD fusion, target AD fusion
S100B-2 (human) [7] = molecular target: T4, S100B-2 (human); assay: Y2H 1x1 mating, binder BD fusion, target AD fusion
[8] = molecular target: ATPase (ATP6N1) (Genbank ID: u73006) (human) (UniProt Q93050); assay: Y2H 1x1 mating, binder AD fusion, target BD fusion

For “ATPase (ATP6N1) (Genbank ID: u73006) (from UniProt Q93050 1-300)”, the binding [1] was “no binding”.

“Fibrinogen (Genbank ID: M58569), S100B interactor (human)” was tested, and the binding [2] was “no binding”, the binding [3] was “no binding” and the binding (S100B-1 (human) [4]) was “no binding”. The binding (S100B-2 (human) [5]) was “binds”, the binding (S100B-1 (human) [6]) was “no binding” and the binding (S100B-2 (human) [7]) was “binds”.

In the case of “NQO2 (Genbank ID: J02888) (from UniProt P16083) (enzyme)”, the binding [8] is reported as “no binding”, the binding [2] is reported as “no binding” and the binding [3] is reported as “no binding”. The binding (S100B-1 (human) [4]) was “no binding” and the binding (S100B-1 (human) [6]) was “no binding”.

These are yes or no findings as the source states them, for the method shown. For part of these data: A result given as binding can be weak or reduced; the word gives no strength.
